# Assay: Enzymatic quantitation of cholesterol/CHS in proteoliposome lipids
# Conditions: 10 mM MβCD; for concentration of cholesterol after MβCD treatment: proteoliposomes without added CHS
# Experimental: Proteoliposomes reconstituted with the recombinant OCTN1 and added or not with CHS were incubated with MβCD as above described and then, MβCD was removed by chromatography on Sephadex G-75 column as described in Section 4.7.
# Quantitation was performed using the Cholesterol Quantitation Kit MAK043 by Merck Life Science s.r.l., 20149 Milan, Italy,). Assay was performed in the presence of cholesterol esterase with absorbance measured on a microplate reader at 570 nm.
substance,measurement,setting,value
Methyl-beta-CycloDextrin [MβCD],CHS concentration after MβCD treatment,proteoliposomes with initial 83 µg CHS/mg total lipids,50 µg CHS/mg total lipids
same,CHS concentration after MβCD treatment,proteoliposomes with initial 8.3% CHS,5%
same,concentration of cholesterol after MβCD treatment,10 µg/mg total lipids before treatment,6.5 µg/mg total lipids
same,concentration of cholesterol after MβCD treatment,1.0% before treatment,0.65%

# From publication PMC7037232, “Effect of Cholesterol on the Organic Cation Transporter OCTN1 (SLC22A4)” (International Journal of Molecular Sciences, 2020)
